PubChem BioAssay AID2685 (National Center for Advancing Translational Sciences (NCATS), 2010)
Some of the results follow. These are further read-outs of the screen, such as a control signal, another cell line or another target. No call is given for them. Compounds called inactive in the main read-out are mostly missing here. Words in brackets tell the shape of the fitted curve; partial curves, single points and poor fits give uncertain potencies.

Experiment: qHTS Assay for Lipid Storage Modulators in Drosophila S3 Cells;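 on cell number change: cells counted by Cell Tracker Red CMTPX staining in the red channel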
Conditions: BODIPY lipid droplet fluorescence, 18-24 h; for cell number change: measured here: cell count max response, cells fed with added oleic acid
In short: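 Laser-scanning cytometry quantifies lipid droplet accumulation (500–530 nm total intensity; droplet/cell object ratio) in oleic acid-fed (400 uM added) Drosophila S3 cells treated with a concentration series. 20 uM Triacsin C defined 100% inhibition.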

[1] = measured here: lipid fluorescence (Fed channel) AC50, cells fed with added oleic acid
[2] = measured here: cell number channel AC50, cells fed with added oleic acid

## CC(=O)O[C@H]1CC[C@@]2(C)C(=CC[C@H]3[C@@H]4CC[C@H](C5(C)OCCO5)[C@@]4(C)CC[C@@H]32)C1
  cell number change: -12.7%
[1]
  AC50: 29.1 µM [rising, single point]

## Cc1ccc(C)c(N(CC(N)=O)S(C)(=O)=O)c1
  cell number change: -3.17%
[1]
  AC50: 0.0411 µM [falling, full curve]

## Cc1ccc(CNc2cc(C(=O)O)ccc2Cl)s1
  cell number change: 10.6%
[1]
  AC50: 23.1 µM [rising, single point]

## COC(=O)c1ccc(C(=O)OC)c(NC(=O)COC(=O)C2CCC(C(C)(C)C)CC2)c1 (stereo unspecified)
[2]
  AC50: 2.06 µM [rising, partial curve]
[1]
  AC50: 2.06 µM [rising, partial curve]

## O=C1c2ccccc2C(=O)N1CCCCN(C(=O)c1ccc(Cl)s1)c1ccc(Cl)cc1
  cell number change: -29.4%
[2]
  AC50: 3.66 µM [falling, single point]
[1]
  AC50: 29.1 µM [falling, single point]

## Cc1cccn2c(=O)c(C=O)c(N3CCSCC3)nc12
  cell number change: -0.961%
[1]
  AC50: 0.731 µM [falling, single point]

## CS(=O)(=O)c1ccc(NCCN2CCOCC2)c([N+](=O)[O-])c1
  cell number change: -11.1%
[2]
  AC50: 5.17 µM [rising, single point]
[1]
  AC50: 29.1 µM [rising, single point]

## O=C(Cn1nc(C(F)F)cc1C(F)F)NNC(=S)Nc1ccc([N+](=O)[O-])cc1
  cell number change: 0.839%
[1]
  AC50: 1.84 µM [falling, partial curve]

## CC1(NC(=O)CSc2nnc(-c3ccco3)n2Cc2ccccc2)CCS(=O)(=O)C1 (stereo unspecified)
  cell number change: 5.84%
[1]
  AC50: 4.61 µM [falling, full curve, poor fit]

## CCCCN(C(=O)CSc1nnc(Nc2ccc(C)c(C)c2)s1)c1c(N)n(Cc2ccccc2)c(=O)[nH]c1=O
[1]
  AC50: 4.61 µM [falling, partial curve, poor fit]

## Cc1cccc(C(=O)Nc2nnc(S(=O)(=O)N(C)Cc3ccco3)s2)c1
[1]
  AC50: 2.59 µM [falling, single point]

## CCOCCCNC(=O)Cc1cc(=O)[nH]c(=O)[nH]1
  cell number change: -61.6%
[2]
  AC50: 23.1 µM [falling, single point]

## CCOC(=O)c1cn(-c2ccccc2CO)c2c(F)c(F)c(F)cc2c1=O
  cell number change: 9.63%
[1]
  AC50: 1.84 µM [rising, partial curve]

## O=S(=O)(Nc1cccc(-n2cnnn2)c1)c1cc(Cl)ccc1Cl
  cell number change: 2.14%
[2]
  AC50: 0.82 µM [rising, full curve, poor fit]
[1]
  AC50: 29.1 µM [falling, partial curve, poor fit]

## CCCN1C[C@H](CSC)C[C@@H]2c3cccc4[nH]cc(c34)C[C@H]21
  cell number change: 2.4%

## Cc1nn(CC(=O)Nc2ccc(C(C)C)cc2)c(C)c1[N+](=O)[O-]
  cell number change: 2.34%
[2]
  AC50: 0.891 µM [rising, single point]
[1]
  AC50: 0.794 µM [rising, single point]

## Cc1ccc(N(C(=O)C2CCC(=O)N2)C2(C(=O)NC3CCCC3)CCCCC2)cc1 (stereo unspecified)
  cell number change: -48.5%
[2]
  AC50: 3.26 µM [falling, full curve]
[1]
  AC50: 23.1 µM [falling, partial curve]

## Cc1[nH]c2ccccc2c1C(=O)C(C)OC(=O)C1CCC1 (stereo unspecified)
  cell number change: -33.7%
[2]
  AC50: 18.4 µM [falling, single point]
[1]
  AC50: 0.366 µM [falling, single point]

## O=C(Nc1ccccc1)c1cccc(N2C(=O)C3C4CC(C(Br)C4Br)C3C2=O)c1 (stereo unspecified)
  cell number change: -66.6%
[2]
  AC50: 10 µM [falling, partial curve]
[1]
  AC50: 10 µM [falling, partial curve]

## COCCCn1c(C(=O)NCCN2CCOCC2)cc2c(=O)n3ccccc3nc21
[1]
  AC50: 4.11 µM [falling, full curve]

## CCOC(=O)c1ccc2c(c1)nc(SCc1cn3ccsc3n1)n2CC
  cell number change: -20.4%
[1]
  AC50: 16.4 µM [falling, single point]

## O=C(CCNC(=O)c1ccccc1Cl)NCCC1=CCCCC1
  cell number change: 3.74%
[1]
  AC50: 1.16 µM [falling, partial curve]

## Cc1nc(-c2ccc(S(=O)(=O)Nc3ccc(S(N)(=O)=O)cc3)cc2)co1
  cell number change: 1.32%

## O=C(NCCCN1CCN(c2ccccc2F)CC1)C1CCN(S(=O)(=O)N2CCOCC2)CC1
  cell number change: -43.6%
[2]
  AC50: 0.92 µM [falling, full curve, poor fit]
[1]
  AC50: 0.92 µM [falling, full curve]

## Cc1ccc(NC(=O)NCc2cccnc2)cc1C
  cell number change: -6.94%

## Cc1cc(C)n(C(=O)c2cc3c(s2)CCCC3)n1
  cell number change: 5.05%

## CCNc1nc(NCC)n2c(SCC(=O)Nc3cccc(F)c3)nnc2n1
[2]
  AC50: 1.64 µM [rising, partial curve]

## N#CCCN(C(=O)COC(=O)COc1ccc(Cl)cc1)c1ccccc1
  cell number change: -30.8%
[1]
  AC50: 4.61 µM [falling, partial curve, poor fit]

## CC(=O)c1cccc(OCC(=O)Nc2cc(Cl)ccc2-n2cncn2)c1
  cell number change: -3.5%
[2]
  AC50: 6.51 µM [rising, single point]

## CSC1=NCCN1C(=O)c1ccc(Br)o1
  cell number change: 5.16%
[2]
  AC50: 0.651 µM [rising, single point]

## CC(C)NCCOCCSc1ccc(Cl)cc1
[1]
  AC50: 6.51 µM [falling, single point]

## Cc1cc(C)c(NC(=O)Cc2ccc(-n3cccc3)cc2)c(C)c1
  cell number change: -14.9%
[2]
  AC50: 0.259 µM [rising, full curve, poor fit]
[1]
  AC50: 0.259 µM [rising, partial curve]

## COc1cc(OC)cc(C(=O)Nc2ccc(S(=O)(=O)Nc3ncccn3)cc2)c1
[2]
  AC50: 0.00517 µM [falling, full curve, poor fit]

## O=C(NCc1cccnc1)Nc1ccc(Cl)cc1Cl
  cell number change: 57.5%
[2]
  AC50: 2.91 µM [rising, full curve]

## Cc1ccc(N=CC2=C(O)CC(C)(C)CC2=O)nc1
  cell number change: -14.1%
[1]
  AC50: 1.64 µM [falling, partial curve]

## COC(=O)[C@H](C)[C@@H]1C[C@@]1(C)[C@@H](NC(=O)OCc1ccccc1)c1ccccc1
  cell number change: -4.22%
[1]
  AC50: 4.61 µM [rising, partial curve]
